Test results taken from PubChem BioAssay AID1347076 (National Center for Advancing Translational Sciences (NCATS), 2019).
Where “and” joins values, the source holds several entries; their conditions need not be identical. Equal values may be shown once. Screen size: about 400,000 compounds; about 13,000 (3.2%) were called active. The inconclusive results got no clear call from the source; some entries with a clear call stand among them for comparison. Calls follow the shape of the dose curve; as a rule, active = well fitted cell-killing curve with a large enough effect; inconclusive = small, poorly fitted or top-dose-only effect, or effect the other way; inactive = flat fitted curve, though single readings scatter. Potencies beside an inconclusive call are fits to weak or partial responses and may not hold up.

assay: qHTS assay for MDR1-selective chemotherapeutics: Primary screen using the drug-selected MDR subline cells KB-V1; conditions: KB-V1 MDR cells viability, CellTiter-Glo, 72 h; series mostly up to 46.1 µM; also: nearly all actives have a fitted effect of over 60% in size
How it was run: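 KB-V1 cells (P-gp-expressing MDR subline of KB-3-1) in phenol-red-free DMEM with 10% FBS were exposed to library compounds over a concentration series for 72 h at 37 degrees C. Viability read by CellTiter-Glo luminescence; concentration-effect curves fitted after normalization.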
Potency is read from the fitted curve at half-maximal effect.

SMILES	Potency
O=C1CSC(=Nc2cccc(Cl)c2Cl)N1Cc1cccnc1	active: 16.4 µM
Cn1c(SCCOc2ccccc2Cl)nnc1-c1cccs1	active: 18.4 µM
CCOc1ccccc1NC(=O)Nc1nnc(N(C)Cc2ccccc2)s1	inconclusive: 20.6 µM [rising, single point]
COc1ccc(CCN2CC(=O)NC(=O)C2)cc1OC	inconclusive: 32.6 µM [rising, single point]
COc1cc(/C=N/NC(N)=S)ccc1OCC(=O)N1CCOCC1	inconclusive: 29.1 µM [rising, single point]
CC(OC(=O)c1ccc(NS(=O)(=O)c2cccs2)cc1)C(=O)N(C)C1CCCCC1 (stereo not given)	inconclusive: 20.6 µM [cytotoxic, single point]
C=C(Cl)COc1ccc2c(CCCC)cc(=O)oc2c1	inactive
CCN(CC)c1ccc(C(=O)OCC(=O)NC(C)(C)C)cc1	inconclusive: 29.1 µM [cytotoxic, single point]
COc1ccc(CNCCCSc2ncccn2)cc1OC	inactive
CCCN1C(=O)c2ccccc2NC1c1ccc(Cl)cc1 (stereo not given)	inconclusive: 2.91 µM [cytotoxic, partial curve, poor fit]
COc1ccc(N2CCN(C(=O)c3ccc(S(=O)(=O)N4CCOCC4)cc3)CC2)cc1	active: 16.4 µM
Cc1cccc(C)c1OCCN1C(=O)NC(C)(c2ccccc2)C1=O (stereo not given)	inconclusive: 18.4 µM [cytotoxic, single point]
COc1ccccc1Nc1cc2cc(Br)ccc2c(=O)[nH]1	inconclusive: 6.51 µM [cytotoxic, full curve]
CC(C)(C)[C@@H]1CCC(=O)N(CC[C@H](Sc2ccccc2)c2ccccc2)CC1	inconclusive: 11.6 µM [cytotoxic, partial curve] and inconclusive: 18.4 µM [cytotoxic, single point]
COc1ccc(N(Cc2cc3ccccc3[nH]c2=O)S(=O)(=O)c2ccccc2)cc1	inconclusive: 3.66 µM [cytotoxic, partial curve, poor fit]
COc1cccc(C2NC(c3cccc(OC)c3O)C(C)C(=O)C2C)c1O (stereo not given)	inconclusive: 13 µM [cytotoxic, partial curve]
CC(NC(=S)NC1CCCCC1)c1ccc(C(C)(C)C)cc1 (stereo not given)	active: 11.6 µM
Cc1ccc(C(Nc2ccccn2)c2ccc3cccnc3c2O)cc1 (stereo not given)	inactive
OCCN1CCN(c2nc(-c3ccccc3)c3cc(Cl)ccc3n2)CC1	inactive
COc1cc(C#Cc2c(-c3cncn3C)n(C)c3ccc(-c4ccc5[nH]ccc5c4)cc23)cc(OC)c1	inactive
O=C(NCc1ccc(F)cc1)C(=O)Nc1nc(C23CC4CC(CC(C4)C2)C3)cs1	active: 9.2 µM
Nc1c(-c2ccccc2)sc2ccc3ccccc3[n+]12	inconclusive: 16.4 µM [cytotoxic, partial curve]
CCN(CCCNS(=O)(=O)c1ccc2c(c1)oc(=O)n2C)c1cccc(C)c1	inactive

In the list so far, these have four or more nitrogen atoms.
SMILES	Potency
CCOc1ccccc1NC(=O)Nc1nnc(N(C)Cc2ccccc2)s1	inconclusive: 20.6 µM [rising, single point]
COc1cc(/C=N/NC(N)=S)ccc1OCC(=O)N1CCOCC1	inconclusive: 29.1 µM [rising, single point]
OCCN1CCN(c2nc(-c3ccccc3)c3cc(Cl)ccc3n2)CC1	inactive
COc1cc(C#Cc2c(-c3cncn3C)n(C)c3ccc(-c4ccc5[nH]ccc5c4)cc23)cc(OC)c1	inactive

Carrying on.

SMILES	Potency
Cc1cccc(Nc2nc(N)c([N+](=O)[O-])c(NCc3ccco3)n2)c1	active: 7.31 µM
COc1ccc(C(=O)Nc2cc(C)nc3ccccc23)cc1OC	inconclusive: 29.1 µM [cytotoxic, single point]
COc1cccc(S(=O)(=O)N(C)C[C@H]2OCc3cnnn3CCCC(=O)N([C@@H](C)CO)C[C@H]2C)c1	inactive
CCOC(=O)NC1CCc2cc(OC)c(OC)c(OC)c2-c2ccc(SC)c(=O)cc21 (stereo not given)	active: 0.231 µM
CCOC(=O)C1CCCN(C(=O)c2cc(-c3ccccc3)nc3ccccc23)C1 (stereo not given)	inactive
Cc1cccc(NC(=O)C2(C)CC3c4ccccc4C2c2ccccc23)c1C (stereo not given)	active: 7.31 µM
CCOC(=O)C(CC)/C(C)=N\NC(=O)c1cccc(C)c1 (stereo not given)	inconclusive: 29.1 µM [rising, single point]
O=C(CCN1CCCC1)Nc1ccccc1	inactive
COc1ccc(NC(=O)CNC(c2ccccc2)c2ccccc2)cc1Cl	inconclusive: 29.1 µM [cytotoxic, single point]
COc1ccc(-c2cn3ccccc3n2)cc1	inconclusive: 29.1 µM [cytotoxic, single point]
O=C1N(Cc2cccnc2)C[C@@H]2C[C@@H](c3cccc(OCc4ccccc4)c3)N3CCC[C@@]123	inconclusive: 11.6 µM [cytotoxic, partial curve]
O=C(CN1CCN(S(=O)(=O)c2ccc(Br)cc2)CC1)N/N=C/c1cccs1	inconclusive: 20.6 µM [cytotoxic, single point]
CCN(CC(=O)NCc1cccs1)C(=O)/C=C/c1cccc(Br)c1	inconclusive: 29.1 µM [cytotoxic, single point]
O=C(Nc1ccc(OC(F)F)cc1)c1nc(S(=O)(=O)Cc2ccccc2F)ncc1Cl	inactive
COc1ccc(N2CCN(C(CNC(=O)CC(C)C)c3ccc4c(c3)OCO4)CC2)cc1 (stereo not given)	inactive
CC(=O)N(CCc1ccccc1)c1ccc2c(c1)C1CC2CCN1C(=O)OCc1ccccc1 (stereo not given)	inconclusive: 29.1 µM [cytotoxic, single point]
CC(=O)c1ccc(N2CCN(C(=O)CNS(=O)(=O)c3ccc4c(c3)OCCCO4)CC2)c(F)c1	inconclusive: 29.1 µM [cytotoxic, single point]
CC1(C)Cc2cccc(OCC(=O)Nc3cc(C(F)(F)F)ccc3N3CCOCC3)c2O1	inconclusive: 18.4 µM [cytotoxic, single point]
CCCc1cc(N2CCN(c3ccccn3)CC2)n2nc(C)c(-c3ccccc3)c2n1	inconclusive: 29.1 µM [cytotoxic, single point]
O=[N+]([O-])c1ccc(O)c(N=Cc2sc3ccccc3c2O)c1	active: 4.11 µM
OCCNc1nc(Nc2cc(Cl)ccc2OC2CCCC2)nc(N2CCCC2)n1	inconclusive: 32.6 µM [cytotoxic, single point]
Cc1cc(C(=O)COc2cc(F)ccc2[N+](=O)[O-])c(C)n1CC1CCCO1 (stereo not given)	inconclusive: 8.2 µM [rising, partial curve]
